# Assay results as given in PubChem BioAssay AID602313 (National Center for Advancing Translational Sciences (NCATS), 2012).
# The campaign covered roughly 390,000 compounds. About 760 (0.19%) were called active. Inconclusive means that the source gave no clear call. Such entries were picked first, then a sample of the others. The call rests on the fitted dose curve; in most records, active means well fitted inhibition curve with a large enough effect; inconclusive means small, poorly fitted or top-dose-only effect; inactive means flat fitted curve, though single readings scatter. Potencies of inconclusive entries are doubtful fits and often do not repeat.
# Experiment: qHTS for Inhibitors of Vif-A3F Interactions: qHTS; further: nearly all actives have a fitted effect of over 65% in size; on activity, negative = active: % of control where 0% means no effect
# Settings: HeLa A3F-eYFP + Vif (tagged APOBEC3F with the HIV-1 protein that degrades it), YFP fluorescence increase; series mostly up to 46.1 µM; activity, negative = active: at the top concentration
# Outline: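 HeLa cells stably expressing A3F-eYFP plus Vif, plated and incubated overnight at 37 deg C, then exposed to compounds overnight at 37 deg C. Blocked degradation read as raised yellow fluorescence (Ex 488/Em 500-530).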
# Potency means the concentration at half of the fitted maximal effect.
Structure (SMILES),"activity, negative = active",Potency
COCCCn1c(=N)c(C(=O)NCc2ccco2)cc2c(=O)n3cccc(C)c3nc21,inactive: -5.02%,
Cc1cccc(-n2ncc(C(=O)N3CCN(Cc4ccccc4)CC3)c2C2CCN(C(=O)OC(C)(C)C)CC2)c1,inactive: -3.05%,
O=C(c1ccccc1)c1ccc(O)cc1O,,"inconclusive: 3.16 µM [inhibitor, single point]"
O=C(O)CCCCCN1C(=O)C(O)=C(C(=O)/C=C/c2ccccc2)C1c1ccc2c(c1)OCO2 (configuration not stated),inactive: -0.349%,
COc1ccccc1C(=O)NCCC(=O)N1CCN(c2ccccc2Cl)CC1,,"inconclusive: 3.16 µM [inhibitor, single point]"
O=C(Oc1ccc(Br)cc1C(=O)/C=C/c1ccccc1F)c1ccco1,,"inconclusive: 3.55 µM [inhibitor, partial curve, poor fit]"
O=C(O)C(c1ccccc1)N1C(=O)/C(=C\c2ccc(-c3cccc(Cl)c3)o2)SC1=S (configuration not stated),,"inconclusive: 22.4 µM [inhibitor, single point]"
O=C(c1cnc(Cl)c(Cl)c1)N1CCN(S(=O)(=O)c2ccc3ccccc3c2)CC1,inactive: -4.46%,
NS(=O)(=O)c1ccc(N=Nc2c[nH]c(=O)c(O)c2)cc1,,"inconclusive: 12.6 µM [inhibitor, partial curve, poor fit]"
CCc1c(C)[nH]n(-c2nc(-c3ccccc3)cs2)c1=O,,"inconclusive: 35.5 µM [inhibitor, single point]"
CC(=O)Nc1ccc2c(c1)OCCOCCOc1cc(NC(C)=O)ccc1OCCO2,,"inconclusive: 11.2 µM [inhibitor, partial curve, poor fit]"
Cc1cc(Br)ccc1NC(=O)C1CCCN(S(=O)(=O)c2cccc3nonc23)C1 (configuration not stated),,"inconclusive: 20 µM [inhibitor, single point]"
COC(=O)c1ccc2c(c1)SC1=C(CCCC1=O)N2,inactive: -12%,
Cc1ccc2oc(=O)cc(CN3CCCCC3)c2c1,,"inconclusive: 2.82 µM [inhibitor, full curve, poor fit]"
CCOC(=O)c1cccc(NC(=O)CC2C(=O)N(c3ccc(Cl)cc3)C(=O)N2C2CCCC2)c1 (configuration not stated),inactive: -3.61%,
Nc1nn(-c2ccccc2)c2ccc([N+](=O)[O-])cc12,,"inconclusive: 10 µM [inhibitor, partial curve, poor fit]"
COc1ccccc1CNS(=O)(=O)c1cc(C(=O)NCc2ccccn2)c(Cl)cc1Cl,,"inconclusive: 35.5 µM [inhibitor, single point]"
CCOC(=O)C1=C(c2ccccc2)N=c2s/c(=C\c3ccc(O)cc3)c(=O)n2C1c1cccs1 (configuration not stated),,"inconclusive: 17.8 µM [inhibitor, partial curve, poor fit]"
CCOc1ccccc1NC(=O)CSc1nc2c(sc3ccccc32)c(=O)n1CCCC(=O)NC1CCCC1,,"inconclusive: 2.82 µM [inhibitor, partial curve, poor fit]"
CC1=C(C(=O)Nc2ccccc2)C(c2ccc(C)cc2)N=C(Nc2nc3ccccc3o2)N1 (configuration not stated),,active: 10 µM
COc1cc(Cl)c(NC(=O)c2cc(S(=O)(=O)N3CCCCC3)c[nH]2)c(OC)c1,inactive: 2.75%,
Cc1sc2c(c1C)c(=O)n(-c1ccc(Cl)cc1)c(=O)n2Cc1cc(=O)n2cc(Br)ccc2n1,inactive: 3.68%,
N#C/C(=C\c1ccc(Sc2ccc(Cl)cc2)o1)c1nc2ccccc2[nH]1,,"inconclusive: 35.5 µM [inhibitor, single point]"

Structure (SMILES),"activity, negative = active",Potency
N#Cc1ccccc1CN1C(=O)S/C(=C/c2cccn2-c2ccc(C(=O)O)cc2)C1=O,,"inconclusive: 10 µM [inhibitor, partial curve, poor fit]"
CC(c1ccco1)N(C(=O)c1ccc(Cl)c([N+](=O)[O-])c1)c1ccccn1 (configuration not stated),,"inconclusive: 10 µM [inhibitor, partial curve, poor fit]"
CCOC(=O)C1Nc2ccccc2C2C(O)C(O)CC12 (configuration not stated),,"inconclusive: 35.5 µM [inhibitor, single point]"
COc1cc(/C=N/NC(=O)C2c3ccccc3Oc3ccccc32)ccc1O,,"inconclusive: 22.4 µM [inhibitor, single point]"
CCOC(=O)c1c(C)n(C)c2ccc(OC)c(NC(=O)c3cccs3)c12,inactive: 1.56%,
O=C(c1ccc(Cl)cc1)C(CN1CCCCC1)c1ccccc1 (configuration not stated),inactive: 5.99%,
CN(/C=C/C(=C/C=[N+](C)c1ccccc1)OCCCS(=O)(=O)[O-])c1ccccc1,,"inconclusive: 12.6 µM [inhibitor, single point]"
CN1CCN(c2nc(-c3cccc([N+](=O)[O-])c3)nc3ccccc23)CC1,inactive: 7.74%,
CCN(CC)S(=O)(=O)c1cccc(NC(=O)CSc2nc3ccccc3[nH]2)c1,inactive: 3.49%,
Cc1cc(C)nc(NC(=S)Nc2ccc(Br)cc2Cl)c1,,"inconclusive: 35.5 µM [inhibitor, single point]"
COc1ccc(S(=O)(=O)NCc2ccccn2)cc1NC(=O)c1ccccc1C,,"inconclusive: 22.4 µM [inhibitor, single point]"
NS(=O)(=O)c1ccc(-c2c(-c3ccccc3)sc3ccccc23)cc1,,"inconclusive: 35.5 µM [inhibitor, single point]"
O=C(CSc1cccc2cccnc12)Nc1ccc(S(=O)(=O)N2CCOCC2)cc1,inactive: 0.285%,
Cc1sc2ncn(CC(=O)Nc3cccc(C(F)(F)F)c3)c(=O)c2c1S(=O)(=O)N1CCN(C)CC1,inactive: 0.119%,
CCc1nnc(NC(=O)c2cnccn2)s1,inactive: 0.985%,
CN1/C(=C\C=C(C#N)C#N)C(C)(C)c2ccccc21,,active: 11.2 µM
CCOC(=O)/C(C#N)=C/c1ccc(-c2ccsc2C(=O)OC)o1,,"inconclusive: 7.94 µM [inhibitor, partial curve, poor fit]"
Cc1cccc(OCC(=O)Nc2cc(Cl)ccc2-n2cncn2)c1C,,"inconclusive: 25.1 µM [inhibitor, single point]"
CCOC(=O)N1CCN(c2cc(NCCC(=O)O)c3c4c(onc24)-c2ccccc2C3=O)CC1,,active: 7.08 µM
O=C(CCN1C(=O)/C(=C/C=C/c2ccccc2)SC1=S)Nc1ccccn1,,"inconclusive: 11.2 µM [inhibitor, partial curve, poor fit]"
CCOC(=O)c1cnc2c(OC)cccc2c1N1CCN(c2ccc(OC)cc2)CC1,inactive: -3.68%,
CC(=O)Nc1cc(=O)c2cccnc2[nH]1,,"inconclusive: 35.5 µM [inhibitor, single point]"
CC(=O)N/C(=C\c1ccccc1)C(=O)OC(C)C(=O)N(C)c1ccccc1 (configuration not stated),,"inconclusive: 14.1 µM [inhibitor, partial curve, poor fit]"

Structure (SMILES),"activity, negative = active",Potency
Cc1ccc(NC(=O)CN(c2ccc(Cl)cc2)S(=O)(=O)c2cc([N+](=O)[O-])ccc2Cl)cc1,inactive: 4.22%,
O=[N+]([O-])c1ccc(Cl)c(/C=N/n2c(COc3ccccc3)n[nH]c2=S)c1,,"inconclusive: 11.2 µM [inhibitor, partial curve, poor fit]"
COc1ccccc1-c1noc(-c2ccc(NCc3ccco3)c([N+](=O)[O-])c2)n1,,"inconclusive: 10 µM [inhibitor, partial curve]"
COc1cc2c(cc1/C=C1/NC(=O)N(c3ccccc3)C1=O)OCO2,,"inconclusive: 10 µM [inhibitor, partial curve, poor fit]"
O=C(CSc1ccc(Cl)cc1)Nc1ccccc1,,"inconclusive: 17.8 µM [inhibitor, single point]"
Cc1ccc(C)c(NC(=O)C2CCCN(S(=O)(=O)c3c(C)nn(C)c3C)C2)c1 (configuration not stated),,"inconclusive: 3.55 µM [inhibitor, single point]"
COc1ccc(S(=O)(=O)N2CN(Cc3ccco3)c3nc4ccccc4nc32)cc1,inactive: -25.2%,
CCOc1ccc(NC(=O)CCc2nc3cccnc3n2-c2ccccc2)cc1,,"inconclusive: 25.1 µM [inhibitor, single point]"
CCN(Cc1ccccc1)Cc1c(O)ccc2c(=O)c(-c3ccc(Cl)cc3)coc12,inactive: 4.2%,
CCOC(=O)c1nn2c(C(F)(F)F)cc(-c3ccc(OC)cc3)nc2c1Br,,"inconclusive: 35.5 µM [inhibitor, single point]"
CC1CC(C)CN(C(=O)C2CCCN(c3ncnc4c3nc3n4CCCCC3)C2)C1 (configuration not stated),,"inconclusive: 35.5 µM [inhibitor, single point]"
CCn1c(=S)sc2c(=O)n(CC(=O)Nc3cccc(Br)c3)c(C)nc21,,"inconclusive: 35.5 µM [inhibitor, single point]"
Clc1ccccc1NN(Cc1ccncc1)c1ccccc1Cl,,"inconclusive: 2.82 µM [inhibitor, single point]"
CN1CCc2c(sc(NC(=O)CSc3ccc(F)cc3)c2-c2nc3ccccc3s2)C1,,"inconclusive: 3.16 µM [inhibitor, partial curve, poor fit]"
Nc1c(C(=O)NCc2cccnc2)sc(=S)n1-c1ccccc1,inactive: -2.63%,
CCN1C(C(=O)c2ccccc2)=C(OC(=O)COc2ccc(OC)cc2)c2ccccc2S1(=O)=O,inactive: 3.72%,
O=C(Nc1ccc(-c2nc3ccccc3o2)c(O)c1)c1cc(-n2cnnc2)ccc1Cl,,"inconclusive: 35.5 µM [inhibitor, single point]"
O=C(CSc1nncn1-c1ccccc1)Nc1ccccc1F,,"inconclusive: 3.16 µM [inhibitor, single point]"
COc1ccc(-c2nc(C#N)c(N3CCC(C(N)=O)CC3)o2)cc1,inactive: 6.83%,
Cn1cccc1/C=C1\SC(=O)N(c2ccc(O)cc2)C1=O,,active: 25.1 µM
C/C(N)=C(/C#N)C(=O)COC(=O)c1oc2ccccc2c1COC(C)C,,"inconclusive: 35.5 µM [inhibitor, single point]"

# An excerpt from above in order of SMILES length, low to high:
Structure (SMILES),"activity, negative = active",Potency
CCc1nnc(NC(=O)c2cnccn2)s1,inactive: 0.985%,
Clc1ccccc1NN(Cc1ccncc1)c1ccccc1Cl,,"inconclusive: 2.82 µM [inhibitor, single point]"
O=C(c1ccc(Cl)cc1)C(CN1CCCCC1)c1ccccc1 (configuration not stated),inactive: 5.99%,
Cn1cccc1/C=C1\SC(=O)N(c2ccc(O)cc2)C1=O,,active: 25.1 µM
Nc1nn(-c2ccccc2)c2ccc([N+](=O)[O-])cc12,,"inconclusive: 10 µM [inhibitor, partial curve, poor fit]"
O=C(Oc1ccc(Br)cc1C(=O)/C=C/c1ccccc1F)c1ccco1,,"inconclusive: 3.55 µM [inhibitor, partial curve, poor fit]"
CCOC(=O)c1c(C)n(C)c2ccc(OC)c(NC(=O)c3cccs3)c12,inactive: 1.56%,
CCn1c(=S)sc2c(=O)n(CC(=O)Nc3cccc(Br)c3)c(C)nc21,,"inconclusive: 35.5 µM [inhibitor, single point]"
N#C/C(=C\c1ccc(Sc2ccc(Cl)cc2)o1)c1nc2ccccc2[nH]1,,"inconclusive: 35.5 µM [inhibitor, single point]"
CC1CC(C)CN(C(=O)C2CCCN(c3ncnc4c3nc3n4CCCCC3)C2)C1 (configuration not stated),,"inconclusive: 35.5 µM [inhibitor, single point]"
CCN(Cc1ccccc1)Cc1c(O)ccc2c(=O)c(-c3ccc(Cl)cc3)coc12,inactive: 4.2%,
Cc1ccc(C)c(NC(=O)C2CCCN(S(=O)(=O)c3c(C)nn(C)c3C)C2)c1 (configuration not stated),,"inconclusive: 3.55 µM [inhibitor, single point]"
O=C(c1cnc(Cl)c(Cl)c1)N1CCN(S(=O)(=O)c2ccc3ccccc3c2)CC1,inactive: -4.46%,
CC1=C(C(=O)Nc2ccccc2)C(c2ccc(C)cc2)N=C(Nc2nc3ccccc3o2)N1 (configuration not stated),,active: 10 µM
CCOc1ccccc1NC(=O)CSc1nc2c(sc3ccccc32)c(=O)n1CCCC(=O)NC1CCCC1,,"inconclusive: 2.82 µM [inhibitor, partial curve, poor fit]"
O=C(O)CCCCCN1C(=O)C(O)=C(C(=O)/C=C/c2ccccc2)C1c1ccc2c(c1)OCO2 (configuration not stated),inactive: -0.349%,
